In PubChem BioAssay AID743255 (National Center for Advancing Translational Sciences (NCATS), 2014):
Hit rate of the full screen: of about 390,000 compounds, about 910 (0.23%) were called active. Inconclusive means that the source gave no clear call. Such entries were picked first, then a sample of the others. The call rests on the fitted dose curve; in most records, active means well fitted inhibition curve with a large enough effect; inconclusive means small, poorly fitted or top-dose-only effect; inactive means no such curve, though single readings can be large or run the other way. Where the call is inconclusive, the potency comes from a doubtful curve fit.

Protein sequences, listed by entry. Tags and fused reporters are not part of them. Lines headed by an entry give the natural chain unless they say otherwise; changes in a name come on top.
UniProt O94782: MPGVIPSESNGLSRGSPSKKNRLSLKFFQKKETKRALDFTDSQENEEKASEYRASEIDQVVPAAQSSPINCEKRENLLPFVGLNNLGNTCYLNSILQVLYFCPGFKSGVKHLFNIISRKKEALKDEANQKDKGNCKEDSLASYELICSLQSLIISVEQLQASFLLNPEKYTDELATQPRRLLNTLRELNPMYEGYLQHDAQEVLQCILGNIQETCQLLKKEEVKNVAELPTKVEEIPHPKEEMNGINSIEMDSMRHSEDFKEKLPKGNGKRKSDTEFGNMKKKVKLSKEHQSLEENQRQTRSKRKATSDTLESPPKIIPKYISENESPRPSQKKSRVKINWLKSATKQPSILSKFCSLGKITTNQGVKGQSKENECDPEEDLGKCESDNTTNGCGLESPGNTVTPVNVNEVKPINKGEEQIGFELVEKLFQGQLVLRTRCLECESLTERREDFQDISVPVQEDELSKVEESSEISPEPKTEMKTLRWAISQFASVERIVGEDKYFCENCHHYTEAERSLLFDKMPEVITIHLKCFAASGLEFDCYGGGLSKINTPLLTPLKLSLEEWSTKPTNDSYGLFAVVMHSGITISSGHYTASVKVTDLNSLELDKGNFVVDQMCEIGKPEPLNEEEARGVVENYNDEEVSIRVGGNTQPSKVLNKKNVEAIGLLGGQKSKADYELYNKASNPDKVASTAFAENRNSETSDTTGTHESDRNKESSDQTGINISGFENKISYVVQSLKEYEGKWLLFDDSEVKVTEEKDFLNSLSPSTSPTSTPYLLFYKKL

What follows are compounds tested against Ubiquitin carboxyl-terminal hydrolase 1 (Homo sapiens) (UniProt O94782) (assay: Inhibitors of USP1/UAF1: Primary Screen). Conditions: recombinant USP1/UAF1, Ub-Rhodamine cleavage fluorescence; activity change, negative = inhibition: at 57.1 µM (top of the series).
In short: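 In this screen, compounds sit with the deubiquitinase complex (1nM) for 15 min at room temperature before Ub-Rho is added at 150nM final. Fluorescence rise is then followed for 6 reads every 60 seconds.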
Further: nearly all actives have a fitted effect of over 60% in size.
On the % scale 0 is the no-effect control and ±100 the full control effect; potency means the concentration at half of the fitted maximal effect.

SMILES | Potency | activity change, negative = inhibition
O=S(=O)(c1cccc(-c2nnc(-c3ccc(Br)cc3)o2)c1)N1CCCCCC1 | inconclusive: 50.1 µM [inhibitor, partial curve, poor fit] | 
CCCCNC(=O)c1onc(CSc2ccccc2C)c1C(=O)O | inconclusive: 50.1 µM [inhibitor, partial curve, poor fit] | 
COc1ccccc1C1=NNC(=Nc2cccc(S(=O)(=O)N(C)C)c2)SC1 | inconclusive: 7.08 µM [inhibitor, partial curve] | 
CCOC(=O)c1ccc(NC(=O)CSc2nnc(CNc3ccc(OC)cc3)n2C)cc1 |  | inactive: -8.05%
O=C(Nc1ccc(CN2CCS(=O)(=O)CC2)cc1)c1ccc(C(F)(F)F)cc1 |  | inactive: -7.22%
COc1cc(/C=N/NC(=O)C[n+]2ccccc2)cc(OC)c1OC(C)=O | inconclusive: 2.24 µM [inhibitor, full curve] | 
O=C(O)c1cc(-c2ccc(N3CCOCC3)cc2)nn1-c1ccc(F)cc1 | inconclusive: 3.98 µM [inhibitor, partial curve] | 
O=C(NC(=S)NCc1ccccc1)c1ccccc1Br | inconclusive: 35.5 µM [inhibitor, partial curve, poor fit] | 
COc1cc(OC)cc(-n2nnc(-c3nc(-c4ccccc4Cl)no3)c2N)c1 | inconclusive: 5.62 µM [inhibitor, partial curve] | 
CCn1c(C(C#N)/C(=N\S(=O)(=O)c2cccs2)c2ccccc2)nc2ccccc21 (stereo unspecified) | inconclusive: 112 µM [inhibitor, partial curve, poor fit] | 
CCOc1ccccc1N1CCN(Cc2c(C)n(C)n(-c3ccccc3)c2=O)CC1 | inconclusive: 20 µM [inhibitor, partial curve, poor fit] | 
Cc1cc(NC(=O)c2sc(Nc3ccc(F)cc3)nc2N)no1 |  | inactive: -20.4%
COCCCNC(=O)c1sc2nc(C)c(C(=O)Nc3ccc(C)cc3C)c(-c3ccc(Cl)cc3)c2c1N | inconclusive: 7.94 µM [inhibitor, full curve] | 
C[C@H]1CN([C@@H](C)CO)C(=O)CCCn2nncc2CO[C@@H]1CN(C)C(=O)Nc1cccc2ccccc12 | inconclusive: 0.251 µM [inhibitor, full curve, poor fit] | 
Clc1ccc(-c2cn3nc4c(nc3n2)CCCC4)cc1 | inconclusive: 28.2 µM [inhibitor, partial curve] | 
CCCNC(=O)c1cc(-c2ccco2)on1 |  | inactive: 11.1%
O=C(COc1ccc2c(c1)oc(=O)c1ccccc12)N[C@@H](Cc1c[nH]c2ccccc12)C(=O)O | inconclusive: 3.98 µM [inhibitor, full curve] | 
CCOC(=O)C1(C)/C(=N/Nc2ccccc2)C(=O)C(=O)N1c1ccccc1 (stereo unspecified) |  | inactive: -8.47%
CCCCOc1ccc(C(=O)N(Cc2ccc(C(C)C)cc2)C2CCS(=O)(=O)C2)cc1 (stereo unspecified) |  | inactive: -8.65%
CCOC(=O)c1c(C)[nH]c(C(=O)/C(C#N)=C/c2ccc(OCC)cc2)c1C |  | inactive: -17.7%
COC(=O)c1ccc(/C=C/c2ccc3cccc(OC(C)=O)c3n2)cc1 | inconclusive: 28.2 µM [inhibitor, partial curve] | 

SMILES | Potency | activity change, negative = inhibition
CCCCc1n[nH]c(=S)n1Cc1ccc(Cl)cc1 | inconclusive: 44.7 µM [inhibitor, partial curve, poor fit] | 
O=C(Nc1ccccc1-c1nc2ccccc2s1)c1cc(Cl)cc(Cl)c1 | inconclusive: 3.55 µM [inhibitor, single point] | 
O=C1C2C3C=CC(O3)C2C(=O)N1N=C1CCCCC1 (stereo unspecified) | inconclusive: 31.6 µM [inhibitor, single point] | 
Cc1ccc2c(c1)cc1c(=O)n(CC(=O)NC3CCCCC3)nc(C)n12 | inconclusive: 3.16 µM [inhibitor, partial curve] | 
Cc1ccc(C2=N/C(=C/c3cccs3)C(=O)N2Nc2ccccc2)cc1 | inconclusive: 39.8 µM [inhibitor, single point] | 
COc1cccc(-c2ccc(NC(=O)C3CCCN(Cc4cccc(C)n4)C3)cc2)c1 (stereo unspecified) |  | inactive: -24.9%
COc1cc(C(=O)N/N=C(\C)Cn2nc([N+](=O)[O-])cc2C)ccc1O |  | inactive: -3.69%
COCOCCn1cc(CN2CCS(=O)(=O)N(Cc3ccc(-c4ccc(Cl)c(Cl)c4)cc3)C(C(C)C)C2=O)nn1 (stereo unspecified) | inconclusive: 0.0398 µM [inhibitor, full curve, poor fit] | 
Cc1cccc(C)c1-n1ncc(C(=O)N2CCN(c3ccccn3)CC2)c1C1CCN(C(=O)OC(C)(C)C)CC1 |  | inactive: -5.32%
COc1ccccc1N1CCN(C(=O)CSc2nc3ccccc3nc2N2CCC(C)CC2)CC1 |  | inactive: -13.9%
CCOc1ccccc1C(=O)N(C)CC(=O)Nc1ccc(OC)cc1 | inconclusive: 1.12 µM [inhibitor, full curve, poor fit] | 
Cc1cc(C)cc(OCCCn2c(CCNC(=O)C3CCCCC3)nc3ccccc32)c1 | inconclusive: 4.47 µM [inhibitor, full curve, poor fit] | 
Cc1ccc(NC(=O)CSc2nc(=O)n(CCCN(C)C)c3c2CCC3)cc1F | inconclusive: 79.4 µM [inhibitor, partial curve, poor fit] | 
CC(C)CN1CCC(=O)N(CCO)CC1 | inconclusive: 44.7 µM [inhibitor, partial curve, poor fit] | 
CC(C)(C)c1ccccc1NC(=O)NC1CCN(Cc2c(F)cccc2Cl)CC1 | inconclusive: 44.7 µM [inhibitor, partial curve, poor fit] | 
Cc1c(C(=O)O)[nH]c2ccc([N+](=O)[O-])cc12 | inconclusive: 7.94 µM [inhibitor, full curve, poor fit] | 
O=[N+]([O-])c1cccnc1Sc1ccc(Br)cc1 | inconclusive: 31.6 µM [inhibitor, single point] | 
Cn1c(-c2ccccc2)c(/C=N/NC(=O)c2ccc(O)cc2)c2ccccc21 |  | inactive: -22.1%
CCOC(=O)N1CCC(NC(=O)c2cnn(-c3cccc(Cl)c3C)c2C2CCN(C(=O)OC(C)(C)C)CC2)CC1 | inconclusive: 0.398 µM [inhibitor, full curve, poor fit] | 
N#Cc1ccc(COC(=O)CCc2c[nH]c3ccccc23)cc1 |  | inactive: -16.8%
Cc1ccc(N2C(=O)c3[nH]nc(-c4ccc(Cl)cc4)c3C2c2ccc(F)cc2)cc1 (stereo unspecified) | inconclusive: 158 µM [inhibitor, partial curve, poor fit] | 

SMILES | Potency | activity change, negative = inhibition
CCOCCSc1c(C)cnc2c1c(=O)n(C)c(=O)n2C |  | inactive: -4.53%
COc1ccc(/C=C2/SC(=S)N(c3ccc(S(=O)(=O)Nc4nccs4)cc3)C2=O)cc1 | inconclusive: 0.794 µM [inhibitor, full curve, poor fit] | 
O=C(O)COc1ccccc1/C=N/NC(=O)CSc1nnc(SCc2ccc(Cl)cc2)s1 |  | inactive: -19.8%
CC1CCCC(NC(=O)COC(=O)c2ccc([N+](=O)[O-])o2)C1C (stereo unspecified) | inconclusive: 35.5 µM [inhibitor, single point] | 
CCn1c(SCC(=O)N2CCCCC2)nc2c1c(=O)n(C)c(=O)n2C | inconclusive: 39.8 µM [inhibitor, partial curve, poor fit] | 
COc1ccc(C(C#N)=C2C=C(Cl)C(=NO)C=C2Cl)cc1 | inconclusive: 50.1 µM [inhibitor, partial curve, poor fit] | 
CCOc1ccc(/C=C\C(C)=N\O)cc1 | inconclusive: 0.631 µM [inhibitor, full curve, poor fit] | 
CCOC(=O)c1ccc(NC(=O)c2ccc3c(c2)NC(=O)c2ccccc2S3)cc1 | inconclusive: 8.91 µM [inhibitor, full curve] | 
Cc1cccc(-c2ccc3[nH]c4c(c3c2)CCN2C[C@H]3[C@H](C)ON(C)[C@H]3C[C@@H]42)c1 | inconclusive: 44.7 µM [inhibitor, partial curve, poor fit] | 
N#Cc1ccc(C23CC4(C2)[C@H](CN(Cc2ccc(-c5ccccc5)cc2)[C@@H]4c2ccccc2)C3c2ccc(C(F)(F)F)cc2)cc1 (stereo partly specified) | inconclusive: 50.1 µM [inhibitor, partial curve, poor fit] | 
CCCCC1=CC2=CC(=O)C(C)(OC(=O)CC)C(=O)C2=CO1 (stereo unspecified) | inconclusive: 25.1 µM [inhibitor, single point] | 
COc1cc(OC)cc(C(=O)NNC(=O)C2CCC2)c1 | inconclusive: 0.447 µM [inhibitor, full curve, poor fit] | 
COc1ccc2cc(C3(C)NC(=O)N(CC(=O)N4CCCCC4)C3=O)ccc2c1 (stereo unspecified) | inconclusive: 4.47 µM [inhibitor, partial curve] | 
CCC(C)NC(=O)c1ccc2nc(Cc3ccc(OC)cc3)oc2c1 (stereo unspecified) | inconclusive: 7.94 µM [inhibitor, single point] | 
CCN1C(=O)[C@H]2[C@@H](c3ccc(C)cc3)N3C(=O)N(c4ccc(OC)cc4)C(=O)[C@@]3(Cc3ccc(Cl)cc3)[C@H]2C1=O | inconclusive: 44.7 µM [inhibitor, partial curve, poor fit] | 
CC(C)c1cccc(-c2ccc3c(c2)S(=O)(=O)c2cccc(C(=O)NCc4ccco4)c2C3=O)c1 | inconclusive: 0.251 µM [inhibitor, full curve, poor fit] | 
C[C@@H]1CN([C@@H](C)CO)C(=O)CCCn2nncc2CO[C@H]1CN(C)Cc1cccc2c1OCCCO2 | inconclusive: 0.316 µM [inhibitor, full curve, poor fit] | 
CCOC(=O)C1CCN(C(=O)C2CCN(C3=NS(=O)(=O)C(c4ccc(C)c(C)c4)=C3C)CC2)CC1 | inconclusive: 10 µM [inhibitor, single point] | 
CC1(c2ccccc2)CC(c2ccccc2)=Nc2ccccc2N1 (stereo unspecified) | inconclusive: 11.2 µM [inhibitor, partial curve, poor fit] | 
